These are yes or no findings as the source states them, for the method shown. Binding seen in cells or lysates may run through a third protein. A yes stands for co-enrichment or nearness to the bait. Other partners may have been found. Tags and fused reporters may be left off the sequences shown.
T1: SOK1-YFP (AtSOK1 fused to YFP, expressed from the RPS5A promoter) (Arabidopsis thaliana) (UniProt Q9SYJ8)
T1 sequence: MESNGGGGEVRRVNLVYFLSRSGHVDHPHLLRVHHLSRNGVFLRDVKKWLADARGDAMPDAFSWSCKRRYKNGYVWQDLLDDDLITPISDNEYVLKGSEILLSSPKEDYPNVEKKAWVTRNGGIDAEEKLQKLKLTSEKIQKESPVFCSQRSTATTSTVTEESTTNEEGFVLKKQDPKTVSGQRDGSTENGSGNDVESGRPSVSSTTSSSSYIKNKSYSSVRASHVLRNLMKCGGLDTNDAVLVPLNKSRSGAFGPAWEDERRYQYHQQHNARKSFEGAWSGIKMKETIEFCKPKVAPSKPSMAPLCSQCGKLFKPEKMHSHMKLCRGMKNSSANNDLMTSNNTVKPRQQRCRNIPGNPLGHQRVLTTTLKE

T2: SOK2-YFP (AtSOK2 fused to YFP, expressed from the RPS5A promoter) (Arabidopsis thaliana) (UniProt Q9LX14)
T2 sequence: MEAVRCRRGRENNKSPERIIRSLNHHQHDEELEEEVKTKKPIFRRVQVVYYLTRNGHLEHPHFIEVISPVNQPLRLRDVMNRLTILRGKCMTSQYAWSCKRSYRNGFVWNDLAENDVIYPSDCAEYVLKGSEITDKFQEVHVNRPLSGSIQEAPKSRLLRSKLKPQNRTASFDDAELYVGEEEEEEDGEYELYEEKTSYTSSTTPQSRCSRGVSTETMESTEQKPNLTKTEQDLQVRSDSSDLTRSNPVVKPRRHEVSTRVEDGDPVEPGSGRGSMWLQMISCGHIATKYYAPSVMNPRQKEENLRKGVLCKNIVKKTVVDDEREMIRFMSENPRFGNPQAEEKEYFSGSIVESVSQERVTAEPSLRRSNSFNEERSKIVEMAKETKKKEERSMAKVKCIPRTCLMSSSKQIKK

T3: SOK3-YFP (AtSOK3 fused to YFP, expressed from the RPS5A promoter) (Arabidopsis thaliana) (UniProt Q8GYT8)
T3 sequence: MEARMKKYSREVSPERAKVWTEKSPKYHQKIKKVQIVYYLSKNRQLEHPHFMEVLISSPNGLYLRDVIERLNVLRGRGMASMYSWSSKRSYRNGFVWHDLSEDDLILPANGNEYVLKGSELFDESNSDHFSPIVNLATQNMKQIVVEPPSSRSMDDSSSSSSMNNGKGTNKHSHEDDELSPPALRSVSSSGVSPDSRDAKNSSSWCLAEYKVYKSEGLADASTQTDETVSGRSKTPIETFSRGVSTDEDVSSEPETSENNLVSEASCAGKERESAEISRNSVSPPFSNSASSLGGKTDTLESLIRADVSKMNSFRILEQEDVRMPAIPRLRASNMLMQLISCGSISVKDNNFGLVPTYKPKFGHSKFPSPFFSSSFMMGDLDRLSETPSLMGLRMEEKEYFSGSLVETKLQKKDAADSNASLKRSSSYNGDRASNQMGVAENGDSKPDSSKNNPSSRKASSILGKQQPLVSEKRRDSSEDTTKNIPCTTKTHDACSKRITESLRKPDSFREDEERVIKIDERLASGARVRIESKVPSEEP

B1: AtSOK4 (endogenous SOSEKI4) (protein, UniProt Q8GY65 1-343)
chain: MALVSSRATQDSKPSRERIVPVVYYLSRNGRLDHPHFIEVPLSSHNGLYLKDVINRLNDLRGNGMACLYSWSSKRTYKNGFVWYDLSDEDFIFPVHGQEYVLKGSQILDLDNNSGNFSAVTHRRNQSWSSVDHYKVYKASELNAEATRKLSMDASTQTDDRRRRKSPVDEVNEVTELSREEITSPPQSDSSPETLESLMRADGRLILLQEDQELNRTVEKMRPSAVLMQLISCGAMSFKKCGPTLMNGNTRSTAVRGTGNYRLERAEKELKSFGRVKLEEKEYFSGSLIDESSKKELVPALKRSSSYNIDRSSRMGLTKEKEGEELARANFIPRNPNSVVGQP
B2: ANGUSTIFOLIA (endogenous) (protein, UniProt O23702 1-636)
chain: MSKIRSSATMPHRDQPSPASPHVVTLNCIEDCALEQDSLAGVAGVEYVPLSRIADGKIESATAVLLHSLAYLPRAAQRRLRPHQLILCLGSADRAVDSTLAADLGLRLVHVDTSRAEEIADTVMALILGLLRRTHLLSRHALSASGWLGSLQPLCRGMRRCRGMVLGIVGRSVSARYLASRSLAFKMSVLYFDVPEGDEERIRPSRFPRAARRMDTLNDLLAASDVISLHCALTNDTVQILNAECLQHIKPGAFLVNTGSCQLLDDCAVKQLLIDGTIAGCALDGAEGPQWMEAWVKEMPNVLILPRSADYSEEVWMEIREKAISILHSFFLDGVIPSNTVSDEEVEESEASEEEEQSPSKHEKLAIVESTSRQQGESTLTSTEIVRREASELKESLSPGQQHVSQNTAVKPEGRRSRSGKKAKKRHSQQKYMQKTDGSSGLNEESTSRRDDIAMSDTEEVLSSSSRCASPEDSRSRKTPLEVMQESSPNQLVMSSKKFIGKSSELLKDGYVVALYAKDLSGLHVSRQRTKNGGWFLDTLSNVSKRDPAAQFIIAYRNKDTVGLRSFAAGGKLLQINRRMEFVFASHSFDVWESWSLEGSLDECRLVNCRNSSAVLDVRVEILAMVGDDGITRWID
B3: AtSOK3 (endogenous SOSEKI3) (protein, UniProt Q8GYT8 1-540)
chain: T3 sequence

Experiments:
Test in all cases: affinity purification with mass spectrometry; SOK-YFP captured with anti-GFP MicroBeads from extracts of transgenic Arabidopsis seedling roots (0.05 M Tris-HCl pH 7.5, 0.15 M NaCl, NP40); non-transgenic Col-0 as control; 3 replicates; nanoLC-MS/MS
[1] = biological target: T1, SOK1-YFP (AtSOK1 fused to YFP, expressed from the RPS5A promoter) (Arabidopsis thaliana)
[2] = biological target: T2, SOK2-YFP (AtSOK2 fused to YFP, expressed from the RPS5A promoter) (Arabidopsis thaliana)
[3] = biological target: T3, SOK3-YFP (AtSOK3 fused to YFP, expressed from the RPS5A promoter) (Arabidopsis thaliana)

Binder | binding [1] | binding [2] | binding [3]
B1 | binds |  | 
B2 | binds | binds | binds
B3 |  | binds | 
